# According to PubChem BioAssay AID1487 (National Center for Advancing Translational Sciences (NCATS), 2009):
# Values joined by “and” are separate entries in the source; they are usually repeats but may differ in a detail not shown here. Identical values can stand only once. About 25 (0.01%) of roughly 200,000 compounds were called active. This list was built around the results that the source calls inconclusive (neither active nor inactive); the mix of calls is not that of the screen. The call rests on the fitted dose curve; in most records, active means well fitted inhibition curve with a large enough effect in the signal ratio, with a control signal flat (not every such curve was filed as active); inconclusive means small, poorly fitted or top-dose-only effect, or effect the other way, or a change in a side signal; inactive means flat fitted curve, though single readings scatter; the % refers to the signal ratio. Potencies beside an inconclusive call are fits to weak or partial responses and may not hold up.
# Test: qHTS Assay for Modulators of Lamin A Splicing
# Settings: HeLa LMNA splicing GFP/RFP minigene ratio, 48 h; ratio change, negative = inhibition: at 46.1 µM (top of the series) unless noted
# Outline: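 S3 HeLa cells stably expressing lamin A-EGFP splicing minigene plus DsRed2, 600 cells/well, 48 h compound exposure at 37C. Laser-scanning cytometry; analysed as GFP (500-530 nm)/RFP (575-640 nm) total intensity ratio; 0.5% DMSO vehicle.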
# On the % scale 0 is the no-effect control and ±100 the full control effect; potency means the concentration at half of the fitted maximal effect.
Compound,"ratio change, negative = inhibition",Potency
Cc1cc(Br)ccc1SCC(=O)OCC(=O)NC1CCCC1,inactive,
Cc1ccc(NC(=O)CS(=O)CC(=O)N(CC(=O)NC2CCCC2)c2cccc(C)c2C)cc1 (configuration not stated),inconclusive: 17.4%,
CCOC(=O)c1c(NC(=O)CCl)sc(CN(C)C)c1-c1ccccc1,inconclusive: -33.1% [at 46 µM],
COc1ccc(NC(=O)CN2C(=O)C(C)(C)c3cc(S(=O)(=O)N4CCCCC4)ccc32)cc1Cl,inconclusive: -31.1% [at 46 µM],
Cc1ccc(S(=O)(=O)C(CNC(=O)COc2ccccc2)c2cccs2)cc1 (configuration not stated),inactive,
N=C(N)c1ccc(/C=C/c2ccc(C(=N)N)cc2O)cc1,inconclusive: -9.05% [at 46 µM],
COc1cccc(-n2c(SCC(=O)c3ccccc3)nc3c([nH]c4ccccc43)c2=O)c1,inconclusive: 19.6% [at 46 µM],
COc1cccc(CNC(=O)CCC2CCCN(C(=O)c3ccc(C)nc3)C2)c1 (configuration not stated),inconclusive: 33.1% [at 46 µM],
Cc1ccc(/C=C/c2onc(C)c2S(=O)(=O)N2CCC(C(=O)Nc3ccc(OC(F)(F)F)cc3)CC2)cc1,inactive,
CCc1ccc(NS(=O)(=O)c2ccc3[nH]cc(C(=O)N4CCc5ccccc54)c(=O)c3c2)cc1,inactive,
O=C(Nc1ccccc1)N1CCCN(c2c(Cl)cncc2Cl)CC1,inconclusive: -3.5% [at 46 µM],
CCCC(=O)Nc1ccccc1NC(=O)c1ccc(OC(C)=O)cc1,inconclusive: -14.2% [at 46 µM],
O=C(/C=C\c1ccc2c(c1)OCO2)NC1CC(=O)N(c2ccccc2)C1 (configuration not stated),inconclusive: 21.3% [at 46 µM],
Cn1c(SCc2ccc(C#N)cc2)nnc1-c1cccc(Cl)c1,inconclusive: -0.193%,
CCc1cccc2c(C#N)cn(CC(=O)NCCOC)c12,inconclusive: -1.73%,
CSc1nsc(SC)c1NC(=O)OCCc1ccccn1,inconclusive: 17.8%,
Cc1ccc(NC(=O)C2CCCN(c3ncnc4onc(C)c34)C2)c(Cl)c1 (configuration not stated),inconclusive: -8.27% [at 46 µM],
CCOc1ccc(C2C(=O)N(C3CCCCCC3)CC(=O)N2Cc2ccc(F)cc2)cc1OC (configuration not stated),inconclusive: -2.73% [at 46 µM],
CCOc1ccccc1NC(=O)Nc1ccc2nc(N3CCN(C)CC3)cc(C)c2c1,inconclusive: -27.5% [at 46 µM],
COc1cc(/C=N/NC(=O)c2ccoc2C)cc(OC)c1O,inconclusive: -25.9%,
COc1cc(/C=C2\CCCc3c2nc2ccccc2c3C(=O)O)cc(OC)c1O,inactive,

Compound,"ratio change, negative = inhibition",Potency
Cc1ccc(S(=O)(=O)N(C)c2ccc(C(=O)N3CCCCC3)cc2)cc1,,"inconclusive: 35.5 µM [fluorescent, single point]"
Cc1ccc2nc(N(Cc3cccnc3)C(=O)c3ccco3)sc2c1,inactive,
CC(=O)Nc1ccc(NC(=S)NC(=O)/C=C/c2ccccc2)cc1,inconclusive: -30.4% [at 46 µM],
CC(=O)c1cnc2c(-c3ccccc3)cnn2c1C,inconclusive: 44%,
CCSc1nc2ccccc2n1S(=O)(=O)c1ccccc1,inactive,
O=C(O)CCCNC(=O)OCc1ccccc1,inactive,
COc1ccc(NC(=O)CCc2nc3c(C)nn(-c4ccc(C)cc4)c3n(C)c2=O)c(OC)c1,inactive,
CCOc1ccc(-c2c(C)nn3c(C)c(C(=O)Nc4cccc(Cl)c4C)cnc23)cc1OCC,inactive,
O=C(Nc1ccccc1F)Nc1ccccc1F,inactive,
COc1cccc(N=C2SC(CC(=O)Nc3ccccc3)C(=O)N2Cc2ccccn2)c1 (configuration not stated),inactive,
O=[N+]([O-])c1cccc(/C=N/Nc2nccnc2Cl)c1,inactive,
Cc1ccc(NC(=O)c2cc(-c3cccs3)nc3ccccc23)nc1,inconclusive: -7.76% [at 46 µM],
CCC(=O)Nc1ccccc1C(=O)OCc1ccc(C(=O)c2ccccc2)cc1,inactive,
COc1cc2c(cc1OC)C(=S)NC(C)(C)C2,inactive,
Cc1nnc(SCC(=O)Nc2cccc(S(=O)(=O)N(C)c3ccccc3)c2)s1,inconclusive: -33.3%,
COc1ccc(NC(=O)C2CCN(S(=O)(=O)c3cn(C)cn3)CC2)cc1Cl,inconclusive: 17.6% [at 46 µM],
COCCNc1nc(-c2ccoc2)nc2ccccc12,inactive,
O=C(c1cccc(F)c1)N1CCN(C2CCCCC2)CC1,inactive,
O=C(/C=C/c1ccco1)N1CCN(c2ccccc2)CC1,inconclusive: 4.34%,
O=S(=O)(CCN1CCN(C(c2ccccc2)c2ccccc2)CC1)C(F)(F)F,inconclusive: -26.9%,
CCC(=O)O[C@@H]1[C@H](C)O[C@H](O[C@H]2[C@@H](N(C)C)[C@H](O)[C@@H](O[C@@H]3[C@@H](CC=O)C[C@@H](C)[C@@H](O)/C=C\C=C/C[C@@H](C)OC(=O)C[C@@H](OC(=O)CC)[C@H]3OC)O[C@H]2C)C[C@]1(C)O,inconclusive: -4.53%,

Compound,"ratio change, negative = inhibition",Potency
Cc1cccc(N2CCN(c3ccc(N4C(=O)CCCC4=O)cc3[N+](=O)[O-])CC2C)c1 (configuration not stated),,"inconclusive: 35.5 µM [fluorescent, single point]"
CC1CN(C(=O)Nc2ccc(Br)cc2Cl)CC(C)O1 (configuration not stated),inactive,
O=C(O)c1ccccc1NC(=S)NC(=O)c1cccc2ccccc12,inactive,
C/C(Cn1nnc([N+](=O)[O-])n1)=N\NC(=O)c1ccccc1,inconclusive: -15.4%,
CN1C[C@@H]2C[C@H]1CN2c1cc2c(cc1F)c(=O)c(C(=O)O)cn2C1CC1,inconclusive: -32.5%,
CN(C)c1ncc2nc(-c3ccccc3)c(=O)n(CCc3ccccc3)c2n1,inconclusive: -20.5%,
CCCCNC(=O)c1onc(CSc2ccccc2CC)c1C(=O)O,,"inconclusive: 4.47 µM [inhibitor, single point]"
CCCC1=NN(c2ccc([N+](=O)[O-])cc2)C(=O)/C1=C/N(C)C,inconclusive: -17.4%,
Cc1ccc(C)c(NC(=O)Cn2ncc3c([nH]c4ccccc43)c2=O)c1,inactive,
CCc1nc(NCC2CCCO2)c2oc3ccccc3c2n1 (configuration not stated),inconclusive: -1%,
Cc1ccc(-c2csc(NC(=O)Cc3ccc(F)cc3)n2)o1,,"inconclusive: 35.5 µM [rising, partial curve]"
[O-]/[N+](=C/c1ccc(F)cc1)c1ccc(Cl)cc1,inactive,
CC(C)(C)c1ncc(S(=O)(=O)c2ccc(C(F)(F)F)cn2)c(N)n1,inconclusive: 5.07% [at 46 µM],
Cc1oc2ncn(CC(C)C)c(=O)c2c1C(=O)NCCc1ccc(Cl)cc1,inactive,
NC(=O)c1cc(-c2ccccc2)nc(N2CCOCC2)n1,,"inconclusive: 14.1 µM [falling, single point]"
Cc1cccc(OCCCC(=O)Nc2ccc(N(C)C)cc2)c1,inactive,
N#CCCn1c(=O)c(-c2cccc(C#N)c2)nc2cnc(Oc3cccc(Cl)c3)nc21,inconclusive: -21%,
Cc1ccc(-c2csc(N(CCCN3CCOCC3)C(=O)c3ccco3)n2)cc1,inconclusive: -21.6%,
CC(=O)Nc1cccc(C(=O)/C=C/c2ccc(F)cc2)c1,inconclusive: -47.5% [at 46 µM],
Cc1c(C(=O)NCc2ccccc2Cl)sc2nc3n(c(=O)c12)CCCC3,inconclusive: -34.1% [at 46 µM],
O=C(Nc1ccc(Cl)cc1)c1ccc2oc(=O)n(Cc3ccccc3)c2c1,inactive,

Compound,"ratio change, negative = inhibition",Potency
COc1ccc(C(=O)c2cc([N+](=O)[O-])ccc2N2CCN(C)CC2)cc1,inactive,
Nc1cccc2c1C(=O)N(CC(=O)NC13CC4CC(CC(C4)C1)C3)C2=O,inactive,
Cc1ccc(C(=O)OC2=C(C(=O)c3ccccc3)N(C)S(=O)(=O)c3ccccc32)cc1,inconclusive: -26.9% [at 46 µM],
COc1cccc(-c2cc(=O)c3cc(NC(=O)c4ccc(N(C)C)cc4)ccc3[nH]2)c1,inconclusive: -13.7%,
Nc1nc(/C(=C/CC(=O)O)C(=O)NC2C(=O)N3C(C(=O)O)=CCSC23)cs1 (configuration not stated),inconclusive: 14.1%,
CCCCOc1ccc(-c2nnc(-c3ccco3)o2)cc1,inconclusive: 5.73%,
O=C(Nc1ccc(Oc2ccccc2)cc1)c1ccc(F)c(S(=O)(=O)N2CCN(c3cccc(Cl)c3)CC2)c1,inconclusive: -10.9% [at 46 µM],
O=C(N/N=C/c1ccc(OC(=O)c2cccs2)cc1)c1ccc(F)cc1,inactive,
O=C(c1cc(C(=O)N2CCOCC2)c2nc3ccccc3n2c1)c1ccccc1O,,"inconclusive: 11.2 µM [inhibitor, partial curve, poor fit]"
CS(=O)(=O)c1ccc(C(=O)Nc2ccc(N3CCCCC3)cc2)c(Cl)c1,inconclusive: 12% [at 46 µM],
Cc1c(=O)n(OCc2ccccc2)c2ccccc2[n+]1[O-],inactive,
NS(=O)(=O)c1ccc(CCNC(=O)CSc2ccsc2[N+](=O)[O-])cc1,inconclusive: -31% [at 46 µM],
Clc1ccc(Cn2c(CN3CCCC3)nc3ccccc32)cc1,inconclusive: -42.3% and inconclusive: -43.5%,
CC(=O)O[C@]1(C(C)=O)CC[C@@H]2[C@@H]3C=C(Cl)C4=CC(=O)[C@H]5C[C@@H]5[C@]4(C)[C@H]3CC[C@]21C,inactive,
N#CC1=C(SCC(=O)NCc2ccccc2)NC(=O)CC1c1ccco1 (configuration not stated),inactive,
C/C(=N\NC(=O)c1ccn(C)n1)c1cccc(NC(=O)c2ccc(C)s2)c1,inactive,
O=C(NC1CCCC1)c1ccc2c(=O)n(Cc3ccccc3)c(SCc3ccc([N+](=O)[O-])cc3)nc2c1,inconclusive: 1.9% [at 46 µM],
COc1ccc(OC)c2sc(N(Cc3cccnc3)C(C)=O)nc12,inactive,
C=CCNC(=O)c1onc(CSc2cccc(C)c2)c1C(=O)O,,"inconclusive: 0.112 µM [inhibitor, single point]"
